Experimental data as given in the supplement of paper PMC10338343.
± gives the standard deviation. Only a part is listed here, and it is no random draw. The uncertainty is large for many entries. Some of the results follow.

Columns and labels:
[1] = tested on: MILI (PIWIL2) piRISC loaded with L1MC piRNA (26 nt); assay: pre-steady-state target cleavage rate (min^-1); higher = faster piRNA-guided slicing of the target; conditions: guide: L1MC piRNA 5'p-UAACUAAAUACUAUGCAAGCUGUAGG; auxiliary factor: none (no GTSF1)
Summary of the method: (§1)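 In HEPES–potassium acetate buffer at 33 °C, […] transcribed, DNA-blocked target RNA library was mixed with 1 nM active affinity-purified piRISC carrying one synthetic guide, with or without 500 nM GTSF1 partner protein, for 0–8 or 0–960 min. Uncleaved targets were sequenced and normalised to depth and to weakly complementary targets; three trials were pooled and k3 was capped at 0.0001 min^-1. The pre-steady-state cleavage rate followed from a burst-and-steady-state fit.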

[2] = tested on: MIWI (PIWIL1) piRISC loaded with L1MC piRNA (30 nt); assay: as above; conditions: guide: L1MC piRNA 5'p-UAACUAAAUACUAUGCAAGCUGUAGGUCCU; auxiliary factor: none (no GTSF1)
Summary of the method: as §1

[3] = tested on: EfPiwi piRISC loaded with L1MC piRNA (26 nt); assay: pre-steady-state target cleavage rate (min^-1); guide: L1MC piRNA 5'p-UAACUAAAUACUAUGCAAGCUGUAGG; MIWI and MILI are mouse PIWI proteins and EfPiwi is from a freshwater sponge; tags in brackets are library labels; higher = faster piRNA-guided slicing of the target
Summary of the method: as §1

[4] = auxiliary factor: 500 nM Ephydatia muelleri Gtsf1
[5] = auxiliary factor: none (no Gtsf1)

Row | Sequence | pre-steady-state target cleavage rate [1] | pre-steady-state target cleavage rate [2] | pre-steady-state target cleavage rate [3, 4] | pre-steady-state target cleavage rate [3, 5]
1 | UCCUGCUACAGCUUGCAUUCAAUUUAGUAA | 0.000927 ± 0.0057 | 0.000662 ± 0.011 | 0.00147 ± 0.0035 | 0.000224 ± 0.026
2 | UCCUGCUACAGCUUGCAUAGUAAUUUCAAA | 0.00086 ± 0.0072 | 0.000434 ± 0.012 | 0.00378 ± 0.0027 | 0.000695 ± 0.0094
3 | UCCUGCAUCAGCUUGCAUAGUAUUUUCAAA | 0.00135 ± 0.0034 | 0.00218 ± 0.0035 | 0.00236 ± 0.0016 | 0.000423 ± 0.012
4 | UCCUGGUACAGCUUGCAAUGUAUUUAGAAA | 0.00113 ± 0.0057 | 0.00194 ± 0.0029 | 0.000536 ± 0.0062 | 0.000134 ± 0.05
5 | UCCUGGAUGUCCUUGCAUAGAAUUUAGAUA | 0.000707 ± 0.0078 | 0.00143 ± 0.0055 | 0.00162 ± 0.0047 | 0.000371 ± 0.016
6 | UCCUCCUACAGCUAGCAUAGUAUUUACAAA | 0.00142 ± 0.0042 | 0.00121 ± 0.0055 | 0.00397 ± 0.0031 | 0.000445 ± 0.015
7 | UCCUGGAUGAGCUUGCAUAGUAUAAAGAAA | 0.000472 ± 0.016 | 0.00133 ± 0.0053 | 0.000907 ± 0.0051 | 0.000602 ± 0.015
8 | UCCUGGAUGUCCUUGCAUAGUAUUUAUGUUA | 0.00105 ± 0.0071 | 0.00166 ± 0.0049 | 0.00143 ± 0.0046 | 0.000376 ± 0.02
9 | UCCUGGAUGUCGAAGCAUAGUAUUUAGUGUA | 0.00218 ± 0.0033 | 0.00091 ± 0.0072 | 0.000205 ± 0.023 | 0.000514 ± 0.013
10 | UCCUGGAACAGCUUGCAUACAUUUUAGAAA | 0.000666 ± 0.009 | 0.000916 ± 0.008 | 0.000405 ± 0.0075 | 0.00052 ± 0.014
11 | UCCUGGAUGAGCUAGCAUAGUAUUUACAAA | 0.00121 ± 0.0046 | 0.00125 ± 0.0073 | 0.00212 ± 0.0034 | 0.000141 ± 0.051
12 | UCCUGGAUCAGCAUCCAUAGUAUUUAGUUA | 0.00148 ± 0.0051 | 0.000744 ± 0.0077 | 0.00269 ± 0.0023 | 0.000271 ± 0.021
13 | UCCUGGUACAGCUUGCAUAGUAUUUUCAAA | 0.00238 ± 0.0036 | 0.00187 ± 0.0039 | 0.00252 ± 0.003 | 0.00056 ± 0.018
14 | UCCUGGUACAGCUUGCAUAGAUAUUAGAAA | 0.000317 ± 0.022 | 0.000227 ± 0.02 | 0.00185 ± 0.0061 | 0.000443 ± 0.013
15 | UCCUCCUACAGCUUGCAUAGAUAUUAGUUA | 0.00145 ± 0.0045 | 0.00133 ± 0.0044 | 0.00105 ± 0.0042 | 0.000633 ± 0.0078
16 | UCCUGCUACACGAUGCAUAGUAUUUACAAA | 0.000817 ± 0.0076 | 0.000665 ± 0.012 | 0.00103 ± 0.0035 | 0.000219 ± 0.036
17 | UCCUGGAUGUCGAAGCAUAGUAUUUGAGUUA | 0.00203 ± 0.0031 | 0.000956 ± 0.0075 | 0.0002 ± 0.018 | 0.000423 ± 0.018
18 | UCCUGGUACAGCUUGCAUAGUAUUAUGAAA | 0.00105 ± 0.0071 | 0.00231 ± 0.0037 | 0.00153 ± 0.0036 | 0.00026 ± 0.032
19 | UCCUGGUACAGCUUGCAUAGAUAAAUCAAA [g11:g24:cont:t1A] | 0.00056 ± 0.013 | 0.0003 ± 0.016 | 0.000426 ± 0.01 | 0.000609 ± 0.01
20 | UCCUGGUACAGCUUCCAUAGUAUUUAGAAA | 0.0013 ± 0.0055 | 0.00135 ± 0.004 | 0.00336 ± 0.0013 | 0.000443 ± 0.018
21 | UCCUGGAUGUCCUUGCAUAGUAUUAUAGUUA | 0.00213 ± 0.0052 | 0.00302 ± 0.0035 | 0.00424 ± 0.0041 | 0.000837 ± 0.0096
22 | UCCUGGUACAGCUUGCAUAGUAUUUGUUA | 0.00253 ± 0.0038 | 0.00226 ± 0.0031 | 0.00241 ± 0.003 | 0.00101 ± 0.011

Shown in CSV form: entries from further up.
Row,Sequence,pre-steady-state target cleavage rate [1],pre-steady-state target cleavage rate [2],"pre-steady-state target cleavage rate [3, 4]","pre-steady-state target cleavage rate [3, 5]"
18,UCCUGGUACAGCUUGCAUAGUAUUAUGAAA,0.00105 ± 0.0071,0.00231 ± 0.0037,0.00153 ± 0.0036,0.00026 ± 0.032
19,UCCUGGUACAGCUUGCAUAGAUAAAUCAAA [g11:g24:cont:t1A],0.00056 ± 0.013,0.0003 ± 0.016,0.000426 ± 0.01,0.000609 ± 0.01
